Source: article PMC11377297, “Mechanical disengagement of the cohesin ring” (Nature Structural & Molecular Biology, 2023)
These are yes or no findings as the source states them, for the method shown. Some results given as binding are weak or reduced against the parent protein; the word gives no strength. For some assays here: Tags and fused reporters may be left off the sequences shown.

T1: Scc1^Rad21 kleisin subunit of the fission yeast cohesin tetramer (fission yeast) (UniProt P30776)
T1 sequence: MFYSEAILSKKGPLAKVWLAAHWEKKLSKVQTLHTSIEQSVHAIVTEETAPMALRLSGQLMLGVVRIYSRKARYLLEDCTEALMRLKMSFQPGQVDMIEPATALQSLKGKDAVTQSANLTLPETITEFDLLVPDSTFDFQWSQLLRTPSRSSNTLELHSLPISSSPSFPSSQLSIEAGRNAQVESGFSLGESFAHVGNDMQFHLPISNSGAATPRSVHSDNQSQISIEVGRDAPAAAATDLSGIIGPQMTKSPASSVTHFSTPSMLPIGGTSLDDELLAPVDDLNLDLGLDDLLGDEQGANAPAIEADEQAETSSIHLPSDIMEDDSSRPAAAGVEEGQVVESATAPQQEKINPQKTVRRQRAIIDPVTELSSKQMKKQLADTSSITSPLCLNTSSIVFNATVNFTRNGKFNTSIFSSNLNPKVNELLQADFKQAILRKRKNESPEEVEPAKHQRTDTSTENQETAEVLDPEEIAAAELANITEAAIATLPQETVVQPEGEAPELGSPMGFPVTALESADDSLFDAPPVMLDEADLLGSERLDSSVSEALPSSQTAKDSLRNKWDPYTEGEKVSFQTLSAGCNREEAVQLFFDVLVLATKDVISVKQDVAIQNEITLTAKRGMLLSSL

T2: Smc3^Psm3-CLIP-biotin subunit with the CLIP-tag within the hinge region (hinge-tagged cohesin variant) (fission yeast) (UniProt O42649)
T2 sequence (chain, biotin on the CLIP-tag): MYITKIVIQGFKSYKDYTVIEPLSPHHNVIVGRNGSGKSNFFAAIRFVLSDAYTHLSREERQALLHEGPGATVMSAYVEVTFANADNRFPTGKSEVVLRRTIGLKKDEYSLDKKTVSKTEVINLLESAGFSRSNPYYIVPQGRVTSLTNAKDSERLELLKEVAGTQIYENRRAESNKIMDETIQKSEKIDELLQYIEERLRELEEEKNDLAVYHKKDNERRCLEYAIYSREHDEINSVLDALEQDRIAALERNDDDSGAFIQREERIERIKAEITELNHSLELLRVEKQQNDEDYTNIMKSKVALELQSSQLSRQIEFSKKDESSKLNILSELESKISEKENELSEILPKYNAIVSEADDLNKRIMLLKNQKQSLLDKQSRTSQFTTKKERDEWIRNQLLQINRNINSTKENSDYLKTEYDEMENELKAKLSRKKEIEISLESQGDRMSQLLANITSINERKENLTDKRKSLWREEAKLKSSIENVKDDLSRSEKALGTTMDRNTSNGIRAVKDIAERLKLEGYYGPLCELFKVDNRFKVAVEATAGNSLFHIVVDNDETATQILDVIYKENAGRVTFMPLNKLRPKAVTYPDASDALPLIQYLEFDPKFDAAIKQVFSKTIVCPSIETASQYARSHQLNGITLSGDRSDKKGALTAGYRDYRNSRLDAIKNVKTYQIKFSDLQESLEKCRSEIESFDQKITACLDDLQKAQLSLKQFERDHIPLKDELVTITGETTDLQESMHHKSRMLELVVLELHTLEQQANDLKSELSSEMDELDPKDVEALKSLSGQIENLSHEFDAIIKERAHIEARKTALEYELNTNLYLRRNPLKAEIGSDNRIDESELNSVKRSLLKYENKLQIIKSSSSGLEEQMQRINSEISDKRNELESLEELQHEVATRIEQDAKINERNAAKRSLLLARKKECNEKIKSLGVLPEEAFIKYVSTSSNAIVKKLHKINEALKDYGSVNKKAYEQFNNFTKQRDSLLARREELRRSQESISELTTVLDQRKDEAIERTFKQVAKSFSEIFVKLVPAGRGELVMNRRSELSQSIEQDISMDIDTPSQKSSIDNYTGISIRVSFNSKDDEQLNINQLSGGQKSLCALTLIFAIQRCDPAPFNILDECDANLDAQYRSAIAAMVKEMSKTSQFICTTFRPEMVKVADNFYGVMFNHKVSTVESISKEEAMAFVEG


Assays:
[1] = target: T1, Scc1^Rad21 kleisin subunit of the fission yeast cohesin tetramer (fission yeast); assay: co-purification of the recombinant complex (SDS-PAGE, Coomassie); purified cohesin complex resolved by SDS-PAGE; purification methods in the Supplementary Information
[2] = target: T2, Smc3^Psm3-CLIP-biotin subunit with the CLIP-tag within the hinge region (hinge-tagged cohesin variant) (fission yeast); assay: as above

binding [1]	binding [2]	Binder
binds	–	Scc3^Psc3 subunit of the fission yeast cohesin tetramer (protein, UniProt O13816 1-962) MSESVTTGSDDDGGDRESSPVMLSQSFDPMSSSSNSSSEENSDDDYEKTISSKKRHPRPNSKGVNVKRSRRNAIVEEDPQEEIFNNLFAFLLDQKVDTMDIAVSWFADYAKDNQSALANLINFILKCCGCNRAINVFDVQDQDSASATLSQIQLSVERTSTRDYPLNSKNLKFRNFRKRLTGLLSNFVSQLSIRNYLYNSTVFEDIMSWVVAMSSSTMRPIRHTATVFCLNIMTFLCEKSKELLNEHAIATKQLEKEEKRSRVNRNRINELNNSLGEIVKQQDTLTTYLNDYFDSVFVHRYRDVEPKIRVDCLQELGVWINTVPSIFFSGSYLRYLGWMLSDINTTVRLTVVKVLRKFFETDSFIGGLRHFSSRFKERILEMSCVDADIGVRVASIRLCNAMRTCGFLENSEILKVLKLILDINPRVQREAVLFLCKVVDESVNEKIDLWGEEDYILKAFSQTSLTTFSVHWIKFSQMCKLLEEVRLSYQSSFDYDTLLRIFQKNGNFITPITQALLNACEIDSIYQSWEDISNFVLFDNYTSTLKDPIDSILSFCKLNDFQESILLQLLSASIQTVCNNNFITPKTVHNKQAAETTNDQNKDKDLLYLNLLPYINSITERNSASPTLLHDSLRLLFSMDLTEMTDPQLSRHFELLINNLKKFFLTNNDLQIIQGCTILFLRLDSIPALKEDLKLLVTDICDQTVTEFLKNFGSFNIQDAVITKDEFVIFEACLTRIEGCTSLKDFSDYPEFDIIYERLVSLLSRVPNSYEDTLKFSAINTLQSLLFWFFLRKDNPADEEKKKDDETKVFNCLINIMNNDSSKILQLQAARTFLETVIMKEGVKASHYNDDNRVSEEHNFLKPQFLDALLKILEGWLYTYAKVGQFPFKRLTQASSPHTQISLDKNPLNRRLLEHVCCDLTSKLLIVVSLSNTITPEFSQQFCELRGHYGPKLSAIVDEFLN
–	binds	Smc1^Psm1-SNAP subunit with the SNAP-tag within the hinge region (hinge-tagged cohesin variant, TMR-labelled) (protein, UniProt O94383 1-1228, TMR fluorophore on the SNAP-tag) MGRLLRLEVENFKSYRGHQIIGPFEDFTSIIGPNGAGKSNLMDAISFVLGVKSSHLRSTNVKELIYRGKILQRDNTDFTDSSNPTTAYVKLMYELDNGEQREYKRAITPSGATEYKIDEEIVTFSEYCGSLQKENILVRARNFLVFQGDVETIASQSPLELSKLVEQISGSLEYKSEYDKSKDEQDKAVNLSAHSFNKKRGINAELRQYQEQKTEAERYQSQKEKRDSAQLVYLLWKLFHLEKSISSNMAEVTRLKADSIQLIERRDENTKEIEKLKEKEGSIRRNLLAFDRKVRKQEKLIASKRPELISIAEKALESKSNLRKIQRKAAEIEKDYSDQASTLQVLENQLTSLSAAEKEFLKDMQEKEQLKGLRLLPEDKEEYEGLRSEADKLNSNLLFKLQTLNRNIKVTSQSKDSLTSIVGDLESKIKSLHESVSSLDTERADLLAKINEKIESLELEKHDQQKKRLTYSELFHKTQELNEELQSCLQKILEASADRNESKQDAKKREALYALKRIYPEVKGRIIDLCTPTQKKYESAIAAALGKNFDAIVVETQAVAKECIDYIKEQRIGIMTFFPMDTIAASPVNQKFRGTHKGARLAIDVLNFESEYERVMISAVGNTLICDSMTVARDLSYNKRLNAKTVTLEGTVIHKTGLITGGSSNNRSAKHWDDHDFDLLTQTKDRLMHQIGEIEYQKSSCVITESDTVKLHSLESEISLLKDKYTVVSRSVEDKKKEIGHYESLIKEKQPHLSELEMELRNFVKSRDELQIQVEKVEEKIFSGFCKRIGISDIHTYDEIHRTFTQSFTQKQLEFTKQKSLLENRISFEKQRVSDTRLRLERMHKFIEKDQESIDNYEQNREALESEVATAEAELELLKEDFASENSKTEKILLAASEKKLVGKRLVSELTKLSGNITLLESEIDRYVSEWHAILRKCKLEDIDVPLREGSLTSIPIDDVSNSGDITMGEEPSEPVINFEKFGVEVDYDELDEELRNDGSESMASVLQEKLREYSEELDQMSPNLRAIERLETVETRLAKLDEEFAAARKAAKNAKERFNAVKQKRLQKFQAAFSHISEQIDPIYKELTKSPAFPLGGTAYLTLDDLDEPYLGGIKFHAMPPMKRFRDMDQLSGGEKTMAALALLFAIHSYQPSPFFVLDEIDAALDQTNVTKIANYIRQHASSGFQFVVISLKNQLFSKSEALVGIYRDQQENSSRTLSINLEGYVE
